PubChem BioAssay AID1347076 (National Center for Advancing Translational Sciences (NCATS), 2019)
Among all 400,000 compounds or so, about 13,000 (3.2%) were called active. The inconclusive results got no clear call from the source; some entries with a clear call stand among them for comparison. The call rests on the fitted dose curve; in most records, active means well fitted cell-killing curve with a large enough effect; inconclusive means small, poorly fitted or top-dose-only effect, or effect the other way; inactive means flat fitted curve, though single readings scatter. Where the call is inconclusive, the potency comes from a doubtful curve fit.
On the % scale 0 is the no-effect control and ±100 the full control effect; potency means the concentration at half of the fitted maximal effect.

Assay: qHTS assay for MDR1-selective chemotherapeutics: Primary screen using the drug-selected MDR subline cells KB-V1; further: nearly all actives have a fitted effect of over 60% in size
Conditions: KB-V1 MDR cells viability, CellTiter-Glo, 72 h; activity change, negative = cytotoxicity: at 46.1 µM (top of the series)
Outline: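 KB-V1, DMEM (no phenol red) + 10% FBS; cpd pin-transferred, titration series; 72 h, 37 degrees C; CellTiter-Glo, luminescence. Data normalized, curve-fit.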
For `Fc1cccc(CCN2CCN=C2Nc2ccccc2)c1`, the “activity change, negative = cytotoxicity” value was inactive: 9.98%.
With `COc1ccc(-c2cc(=O)[nH]c(=S)[nH]2)cc1` the Potency was inconclusive: 29.1 µM [rising, single point].
For `COC(=O)c1sc(NC(=O)CCCn2nc([N+](=O)[O-])cc2C)c(C(=O)OC)c1C`, the Potency was active: 0.92 µM.
In the case of `Cc1noc(C)c1CSCC(=O)Nc1ccc(OC(F)F)c(Cl)c1`, the Potency is reported as inconclusive: 18.4 µM [cytotoxic, single point].
In the case of `CNC(=O)c1ccccc1Nc1ccc(SC(F)F)cc1`, the Potency is reported as inconclusive: 14.6 µM [cytotoxic, partial curve, poor fit].
With `O=C(NN1C(=O)C2C3c4ccccc4C(c4ccccc43)C2C1=O)c1ccc(Cl)cc1` (stereo not given) the Potency was active: 16.4 µM.
In the case of `Clc1ccccc1Cn1nc(-c2ccccc2)nc1-c1ccccc1`, the Potency is reported as active: 14.6 µM.
In the case of `COc1cccc(N2[C@@H](CC(=O)O)c3ccc(/C=C/C(=O)O)cc3S2(=O)=O)c1`, the Potency is reported as “inactive”.
For `O=C(NNc1nc2cc3c(cc2s1)OCCO3)c1ccc(F)cc1`, the Potency was inconclusive: 29.1 µM [cytotoxic, single point].
In the case of `COC(=O)c1cscc1S(=O)(=O)Cc1ccccc1`, the Potency is reported as inconclusive: 18.4 µM [rising, partial curve, poor fit].
For `Cc1ccc2c(c1)nnn2C1CCN(S(=O)(=O)c2ccc(C(=O)NC3CCCC3)cc2)CC1`, the Potency was inconclusive: 2.59 µM [cytotoxic, full curve].
For `Cc1ccc(S(=O)(=O)Nc2ccc(S(=O)(=O)Nc3nccs3)cc2)c([N+](=O)[O-])c1`, the Potency was inconclusive: 3.26 µM [rising, full curve].
In the case of `Cc1nnc2n1N=C(c1ccccc1)CS2`, the “activity change, negative = cytotoxicity” value is reported as inactive: 7.55%.
For `O=C(Nc1nnc([C@@H]2C[C@H](O)[C@@H](CO)O2)s1)Nc1ccccc1F`, the “activity change, negative = cytotoxicity” value was inactive: 15.1%.
For `CCN(c1ccc(OCC(=O)OCC(=O)c2c(N)n(C)c(=O)n(C)c2=O)cc1)S(=O)(=O)c1ccccc1`, the Potency was inconclusive: 3.26 µM [rising, full curve, poor fit].
For `O=S(=O)(c1ccc(Br)cc1)N1CCCN(Cc2cccc(F)c2)CC1`, the “activity change, negative = cytotoxicity” value was inactive: -13.3%.
For `O=C(CSc1nnc(-c2cccnc2)n1-c1ccccc1)N1CCN(c2ccc(F)cc2)CC1`, the Potency was inconclusive: 5.17 µM [cytotoxic, partial curve, poor fit].
For `CC(C)NS(=O)(=O)c1ccc(OCC(=O)N2CCN(c3ccccc3)CC2)cc1`, the Potency was inconclusive: 29.1 µM [cytotoxic, single point].
For `COCCN(Cc1cc2cc3c(cc2nc1Cl)OCO3)C(=O)Nc1ccc(F)cc1`, the Potency was inconclusive: 2.59 µM [cytotoxic, full curve].
With `Cn1c(Cn2c(=O)sc3ccccc32)nnc1SCC(=O)Nc1ccc2c(c1)OCO2` the Potency was inconclusive: 0.517 µM [cytotoxic, full curve].
With `CCOC(=O)c1ccc(NC(=O)CSc2ccc(-c3cccnc3)nn2)cc1` the “activity change, negative = cytotoxicity” value was inactive: -17.6%.
In the case of `CCOC(=O)[C@]12CCCC=C1N(Cc1ccc3c(c1)OCO3)C(=O)[C@H](CC(=O)NCC13CC4CC(CC(C4)C1)C3)C2`, the Potency is reported as inconclusive: 18.4 µM [cytotoxic, partial curve].
In the case of `Cc1cccc(Nc2ncccc2C(=O)NCc2cccs2)c1C`, the “activity change, negative = cytotoxicity” value is reported as inactive: -26.3%.
For `COc1ccc(NC(=O)c2ccc3c(c2)CCN3S(C)(=O)=O)cc1`, the Potency was inconclusive: 29.1 µM [cytotoxic, single point].
In the case of `COCCn1c(C)cc(C(=O)COC(=O)c2c(C)nn(Cc3ccccc3)c2C)c1C`, the Potency is reported as inconclusive: 23.1 µM [cytotoxic, partial curve, poor fit].
For `O=C(COC(=O)c1ccc([N+](=O)[O-])o1)NC1CCCC1`, the Potency was inconclusive: 29.1 µM [rising, single point].
With `O=C(O)Cc1sc(-c2cccnc2)nc1-c1ccc(Br)cc1` the “activity change, negative = cytotoxicity” value was inactive: -20%.
For `COc1ccc2[nH]c(C(=O)Nc3ccccc3Cl)cc2c1`, the Potency was inconclusive: 23.1 µM [cytotoxic, single point].
In the case of `O=S(=O)(NCCC1=CCCCC1)c1cccc(S(=O)(=O)N2CCOCC2)c1`, the Potency is reported as inconclusive: 20.6 µM [cytotoxic, single point].
In the case of `Cc1ccc(S(=O)(=O)N2CCN(C(=O)C3COc4ccccc4O3)CC2)cc1C` (stereo not given), the Potency is reported as active: 9.2 µM.
In the case of `Cc1ccc(C2CC(c3cccs3)=NN2C(=O)CSC2=NCCS2)cc1` (stereo not given), the Potency is reported as inconclusive: 18.4 µM [cytotoxic, single point].
With `O=C1NCCN(CC2CCN(CCC3CCCC3)CC2)C1=O` the “activity change, negative = cytotoxicity” value was inactive: -7.21%.
In the case of `COc1ccc(NC(=O)c2c(NCc3cccs3)sc3c2CCCC3)c(OC)c1`, the “activity change, negative = cytotoxicity” value is reported as inactive: 6.89%.
For `COc1ccc(/C=N/NC(=O)c2[nH]c(C)c(C(=O)N/N=C/c3ccc(OC)cc3)c2C)cc1`, the Potency was inconclusive: 16.4 µM [cytotoxic, single point].
For `Cc1ccc2nc(NC(=S)NC(=O)c3cccs3)sc2c1`, the Potency was inconclusive: 16.4 µM [cytotoxic, single point].
For `COc1ccc(-c2ccc(C(=O)NCc3ccco3)c3occc23)c(C)c1`, the Potency was inconclusive: 23.1 µM [cytotoxic, single point].
For `CCCSc1nc2cc(C)c(C)cc2n1CC(C)O` (stereo not given), the Potency was inconclusive: 18.4 µM [cytotoxic, single point].
For `CCC(C)N1CC(C(=O)O)CC1=O` (stereo not given), the “activity change, negative = cytotoxicity” value was inactive: -4.88%.
For `Cc1cc(-n2c(C)cc(C(=O)CSc3nc(N)cc(=O)[nH]3)c2C)no1`, the “activity change, negative = cytotoxicity” value was inactive: 22.1%.
For `CCCCCc1c(-c2ccc(OC)c(OC)c2)ncn1CCc1ccccc1OC`, the Potency was active: 14.6 µM.
For `CCCN1Cc2cccc(C(=O)NCCc3ccccc3)c2C1=O`, the Potency was inconclusive: 8.2 µM [cytotoxic, partial curve].
With `O=C(N/N=C/c1c(O)ccc2ccccc12)C(=O)N1CCCC1` the Potency was inconclusive: 3.66 µM [cytotoxic, full curve, poor fit].
For `CCOC(=O)c1c(C)[nH]c(C)c1C(=O)COC(=O)/C=C/c1ccc(Cl)cc1`, the Potency was inconclusive: 29.1 µM [cytotoxic, single point].
For `Cc1noc(C)c1-c1ccc(C(=O)NCc2cccs2)c2occc12`, the Potency was inconclusive: 18.4 µM [cytotoxic, partial curve, poor fit].
For `CSc1ccccc1NC(=O)Cn1nc([N+](=O)[O-])cc1C`, the Potency was inconclusive: 29.1 µM [rising, single point].
